From publication PMC8704891, “Natural Benzo/Acetophenones as Leads for New Synthetic Acetophenone Hybrids Containing a 1,2,3-Triazole Ring as Potential Antifouling Agents” (Marine Drugs, 2021)

Tested on: Mytilus galloprovincialis plantigrade larvae
Experiment: Mussel larvae anti-settlement bioassay
Format: in vivo
Description: Mussel (Mytilus galloprovincialis) plantigrades were collected in juvenile aggregates during low neap tides at Memória beach, Matosinhos, Portugal (41°13′59″ N; 8°43′28″ W). In the laboratory, mussel plantigrade larvae (0.5–2 mm) were isolated in a binocular magnifier (Olympus SZX2-ILLT, Tokyo, Japan) to a petri dish with filtered seawater, and those with functional foot and competent exploring behavior were selected to the bioassays. Compounds were screened at 50 µM in 24-well microplates with 4-well replicates per condition and 5 larvae per well, for 15 h, in the darkness at 18 ± 1 °C, according to the previously reported. All compounds that caused more than 60% of settlement inhibition (≤40% of settlement) in the screening bioassay were considered active and selected for the determination of the semi-maximum response concentration that inhibited 50% of the larval settlement (EC50), at compounds concentrations of 3.125, 6.25, 12.5, 25, 50, 100, and 200 μM.
Data from anti-settlement, antibacterial, and anti-microalgal bioassay were analyzed by one-way analysis of variance (ANOVA), followed by a multi-comparisons Dunnett’s test against negative control. For all of the bioassays, the half-maximum response concentration (EC50) values for each compound, when applicable, were calculated using probit regression analysis. Significance was considered at p < 0.01, and 95% lower and upper confidence limits (95% LCL; UCL). The software IBM SPSS Statistics 26 (Armonk, New York, NY, USA) was used for statistical analysis.

Question: How did the LC50/EC50 therapeutic ratio turn out when COc1cc(C(C)=O)cc(OC)c1OCc1cn(-c2ccc(Cl)cc2)nn1 [Compound 6a, 1-(4-((1-(4-Chlorophenyl)-1H-1,2,3-triazol-4-yl)methoxy)-3,5-dimethoxyphenyl)ethan-1-one] was run?
Answer: >6.93

Question: COc1cc(C(C)=O)cc(OC)c1OCc1cn(CCCO)nn1 [Compound 7a, 1-(4-((1-(3-Hydroxypropyl)-1H-1,2,3-triazol-4-yl)methoxy)-3,5-dimethoxyphenyl)ethan-1-one] was tested. Which LC50/EC50 therapeutic ratio did it give?
Answer: >4.98

Question: Which LC50/EC50 therapeutic ratio does the source give for COc1cc(C(C)=O)cc(OC)c1OCc1cn([C@H]2O[C@@H](CO)[C@H](O)[C@@H](O)[C@@H]2NC(C)=O)nn1 [Compound 9a, N-((2S,3S,4S,5R,6S)-2-(4-((4-Acetyl-2,6-dimethoxyphenoxy)methyl)-1H-1,2,3-triazol-1-yl)-4,5-dihydroxy-6-(hydroxymethyl)tetrahydro-2H-pyran-3-yl)acetamide] here?
Answer: >9.67
